Results reported in patent US20250074896A1, “ARYLTETRAHYDROPYRIDAZINE DERIVATIVE OR SALT THEREOF AND INSECTICIDAL AGENT CONTAINING THE COMPOUND AND METHOD FOR USING SAME” (NIHON NOHYAKU CO., LTD., priority 2021, published 2025).
Some entries share one result that the patent states for a list of compounds.

Tests used:
Format in all cases: in vivo
[1] = test system: Diamondback moth (Plutella xylostella); test: Insecticidal test on diamondback moth (dip treatment of Chinese cabbage seedlings with laid eggs); settings: dip about 30 seconds, 6 days after treatment, 25° C.
[2] = test system: Small Brown Planthopper (Laodelphax striatellus); test: Insecticidal test on small brown planthopper (dipped rice seedlings, 3rd-instar larvae); settings: rice seedlings dipped 30 seconds, 8 days after inoculation
[3] = test system: Western Flower Thrips (Frankliniella occidentalis); test: Insecticidal test on western flower thrips (kidney bean leaf pieces, hatched larvae); settings: 4 days after the treatment

N#Cc1ccc(N2CC(O)=C(C(=O)Nc3ccc(SC(F)(F)F)cc3)C(=O)N2)cn1 [1-113]
A (the mortality rate is 100%): insecticidal efficacy (corrected mortality rate) against diamondback moth ([1]; 500 ppm) | insecticidal efficacy (corrected mortality rate) against small brown planthopper ([2]; 500 ppm) | insecticidal efficacy (corrected mortality rate) against western flower thrips ([3]; 500 ppm)

COC(=O)N1C(=O)C(C(=O)Nc2ccc(F)cc2)=C(O)CN1c1cnc(C#N)c(Br)c1 [3-604]
A (the mortality rate is 100%): insecticidal efficacy (corrected mortality rate) against diamondback moth ([1]; 50 ppm) | insecticidal efficacy (corrected mortality rate) against diamondback moth ([1]; 500 ppm) | insecticidal efficacy (corrected mortality rate) against small brown planthopper ([2]; 50 ppm) | insecticidal efficacy (corrected mortality rate) against small brown planthopper ([2]; 500 ppm) | insecticidal efficacy (corrected mortality rate) against western flower thrips ([3]; 50 ppm) | insecticidal efficacy (corrected mortality rate) against western flower thrips ([3]; 500 ppm)

N#Cc1ncc(N2CC(O)=C(C(=O)Nc3ccc4c(c3)OCO4)C(=O)N2)cc1Cl [1-231]
A (the mortality rate is 100%): insecticidal efficacy (corrected mortality rate) against diamondback moth ([1]; 50 ppm) | insecticidal efficacy (corrected mortality rate) against diamondback moth ([1]; 500 ppm) | insecticidal efficacy (corrected mortality rate) against small brown planthopper ([2]; 50 ppm) | insecticidal efficacy (corrected mortality rate) against small brown planthopper ([2]; 500 ppm) | insecticidal efficacy (corrected mortality rate) against western flower thrips ([3]; 50 ppm) | insecticidal efficacy (corrected mortality rate) against western flower thrips ([3]; 500 ppm)

N#Cc1ccc(N2CC(O)=C(C(=O)Nc3ccc(F)c(F)c3)C(=O)N2)cc1F [1-165]
A (the mortality rate is 100%): insecticidal efficacy (corrected mortality rate) against diamondback moth ([1]; 50 ppm) | insecticidal efficacy (corrected mortality rate) against diamondback moth ([1]; 500 ppm) | insecticidal efficacy (corrected mortality rate) against small brown planthopper ([2]; 50 ppm) | insecticidal efficacy (corrected mortality rate) against small brown planthopper ([2]; 500 ppm) | insecticidal efficacy (corrected mortality rate) against western flower thrips ([3]; 50 ppm) | insecticidal efficacy (corrected mortality rate) against western flower thrips ([3]; 500 ppm)

COc1cccc(NC(=O)C2=C(O)CN(c3ccc(Br)nc3)NC2=O)n1 [1-261]
A (the mortality rate is 100%): insecticidal efficacy (corrected mortality rate) against diamondback moth ([1]; 500 ppm) | insecticidal efficacy (corrected mortality rate) against small brown planthopper ([2]; 50 ppm) | insecticidal efficacy (corrected mortality rate) against small brown planthopper ([2]; 500 ppm) | insecticidal efficacy (corrected mortality rate) against western flower thrips ([3]; 50 ppm) | insecticidal efficacy (corrected mortality rate) against western flower thrips ([3]; 500 ppm)

O=C(Nc1ccc(F)cc1)C1=C(O)CN(c2ccc(C(F)(F)F)nc2)N(C(=O)NC2CC2)C1=O [3-70]
A (the mortality rate is 100%): insecticidal efficacy (corrected mortality rate) against diamondback moth ([1]; 50 ppm) | insecticidal efficacy (corrected mortality rate) against diamondback moth ([1]; 500 ppm) | insecticidal efficacy (corrected mortality rate) against small brown planthopper ([2]; 50 ppm) | insecticidal efficacy (corrected mortality rate) against small brown planthopper ([2]; 500 ppm) | insecticidal efficacy (corrected mortality rate) against western flower thrips ([3]; 50 ppm) | insecticidal efficacy (corrected mortality rate) against western flower thrips ([3]; 500 ppm)

N#Cc1ccc(N2CC(O)=C(C(=O)Nc3ccc(Cl)nc3)C(=O)N2)cc1 [1-1]
A (the mortality rate is 100%): insecticidal efficacy (corrected mortality rate) against diamondback moth ([1]; 500 ppm) | insecticidal efficacy (corrected mortality rate) against small brown planthopper ([2]; 50 ppm) | insecticidal efficacy (corrected mortality rate) against small brown planthopper ([2]; 500 ppm) | insecticidal efficacy (corrected mortality rate) against western flower thrips ([3]; 50 ppm) | insecticidal efficacy (corrected mortality rate) against western flower thrips ([3]; 500 ppm)

O=C(Nc1ccc(F)c(F)c1)C1=C(O)CN(c2ccc(Cl)cn2)NC1=O [1-74]
A (the mortality rate is 100%): insecticidal efficacy (corrected mortality rate) against diamondback moth ([1]; 50 ppm) | insecticidal efficacy (corrected mortality rate) against diamondback moth ([1]; 500 ppm) | insecticidal efficacy (corrected mortality rate) against small brown planthopper ([2]; 50 ppm) | insecticidal efficacy (corrected mortality rate) against small brown planthopper ([2]; 500 ppm) | insecticidal efficacy (corrected mortality rate) against western flower thrips ([3]; 50 ppm) | insecticidal efficacy (corrected mortality rate) against western flower thrips ([3]; 500 ppm)

CCNC(=O)C1=C(O)CN(c2ccc(C#N)nc2)NC1=O [1-210]
A (the mortality rate is 100%): insecticidal efficacy (corrected mortality rate) against diamondback moth ([1]; 500 ppm) | insecticidal efficacy (corrected mortality rate) against small brown planthopper ([2]; 50 ppm) | insecticidal efficacy (corrected mortality rate) against small brown planthopper ([2]; 500 ppm) | insecticidal efficacy (corrected mortality rate) against western flower thrips ([3]; 500 ppm)

O=C(Nc1ccc(F)cn1)C1=C(O)CN(c2ccc(Br)nn2)NC1=O [1-147]
A (the mortality rate is 100%): insecticidal efficacy (corrected mortality rate) against diamondback moth ([1]; 500 ppm) | insecticidal efficacy (corrected mortality rate) against small brown planthopper ([2]; 500 ppm) | insecticidal efficacy (corrected mortality rate) against western flower thrips ([3]; 500 ppm)

COc1ccc(NC(=O)C2=C(O)CN(c3ccc(C#N)c(C)c3)NC2=O)cn1 [1-10]
A (the mortality rate is 100%): insecticidal efficacy (corrected mortality rate) against diamondback moth ([1]; 500 ppm) | insecticidal efficacy (corrected mortality rate) against small brown planthopper ([2]; 500 ppm) | insecticidal efficacy (corrected mortality rate) against western flower thrips ([3]; 500 ppm)

CCNC(=O)C1=C(O)CN(c2ccc(C(F)(F)F)nc2)N(C(=O)OCC(C)C)C1=O [3-274]
A (the mortality rate is 100%): insecticidal efficacy (corrected mortality rate) against diamondback moth ([1]; 500 ppm) | insecticidal efficacy (corrected mortality rate) against small brown planthopper ([2]; 50 ppm) | insecticidal efficacy (corrected mortality rate) against small brown planthopper ([2]; 500 ppm) | insecticidal efficacy (corrected mortality rate) against western flower thrips ([3]; 500 ppm)

COCCOC(=O)N1C(=O)C(C(=O)Nc2ccc(F)cn2)=C(O)CN1c1ccc(Br)nc1 [3-321]
A (the mortality rate is 100%): insecticidal efficacy (corrected mortality rate) against diamondback moth ([1]; 50 ppm) | insecticidal efficacy (corrected mortality rate) against diamondback moth ([1]; 500 ppm) | insecticidal efficacy (corrected mortality rate) against small brown planthopper ([2]; 50 ppm) | insecticidal efficacy (corrected mortality rate) against small brown planthopper ([2]; 500 ppm) | insecticidal efficacy (corrected mortality rate) against western flower thrips ([3]; 50 ppm) | insecticidal efficacy (corrected mortality rate) against western flower thrips ([3]; 500 ppm)

Cc1cc(N2CC(O)=C(C(=O)Nc3ccc(F)cc3)C(=O)N2C(=O)OCC(C)C)ccc1C#N [3-286]
A (the mortality rate is 100%): insecticidal efficacy (corrected mortality rate) against diamondback moth ([1]; 50 ppm) | insecticidal efficacy (corrected mortality rate) against diamondback moth ([1]; 500 ppm) | insecticidal efficacy (corrected mortality rate) against small brown planthopper ([2]; 50 ppm) | insecticidal efficacy (corrected mortality rate) against small brown planthopper ([2]; 500 ppm) | insecticidal efficacy (corrected mortality rate) against western flower thrips ([3]; 50 ppm) | insecticidal efficacy (corrected mortality rate) against western flower thrips ([3]; 500 ppm)

Cn1nnnc1-c1ccc(N2CC(O)=C(C(=O)Nc3ccc(F)c(F)c3)C(=O)N2)cn1 [1-180]
A (the mortality rate is 100%): insecticidal efficacy (corrected mortality rate) against diamondback moth ([1]; 50 ppm) | insecticidal efficacy (corrected mortality rate) against diamondback moth ([1]; 500 ppm) | insecticidal efficacy (corrected mortality rate) against small brown planthopper ([2]; 50 ppm) | insecticidal efficacy (corrected mortality rate) against small brown planthopper ([2]; 500 ppm) | insecticidal efficacy (corrected mortality rate) against western flower thrips ([3]; 50 ppm) | insecticidal efficacy (corrected mortality rate) against western flower thrips ([3]; 500 ppm)

COC(=O)N1C(=O)C(C(=O)Nc2ccc(F)cc2)=C(O)CN1c1ccc(Cl)nc1 [3-157]
A (the mortality rate is 100%): insecticidal efficacy (corrected mortality rate) against diamondback moth ([1]; 50 ppm) | insecticidal efficacy (corrected mortality rate) against diamondback moth ([1]; 500 ppm) | insecticidal efficacy (corrected mortality rate) against small brown planthopper ([2]; 50 ppm) | insecticidal efficacy (corrected mortality rate) against small brown planthopper ([2]; 500 ppm) | insecticidal efficacy (corrected mortality rate) against western flower thrips ([3]; 50 ppm) | insecticidal efficacy (corrected mortality rate) against western flower thrips ([3]; 500 ppm)

CC(C)CNC(=O)N1C(=O)C(C(=O)Nc2ccc(F)cc2)=C(O)CN1c1ccc(C(F)(F)F)nc1 [3-72]
A (the mortality rate is 100%): insecticidal efficacy (corrected mortality rate) against diamondback moth ([1]; 50 ppm) | insecticidal efficacy (corrected mortality rate) against diamondback moth ([1]; 500 ppm) | insecticidal efficacy (corrected mortality rate) against small brown planthopper ([2]; 50 ppm) | insecticidal efficacy (corrected mortality rate) against small brown planthopper ([2]; 500 ppm) | insecticidal efficacy (corrected mortality rate) against western flower thrips ([3]; 50 ppm) | insecticidal efficacy (corrected mortality rate) against western flower thrips ([3]; 500 ppm)

COc1cccc(NC(=O)C2=C(O)CN(c3ccc(C#N)nc3)NC2=O)c1 [1-206]
A (the mortality rate is 100%): insecticidal efficacy (corrected mortality rate) against diamondback moth ([1]; 500 ppm) | insecticidal efficacy (corrected mortality rate) against small brown planthopper ([2]; 50 ppm) | insecticidal efficacy (corrected mortality rate) against small brown planthopper ([2]; 500 ppm) | insecticidal efficacy (corrected mortality rate) against western flower thrips ([3]; 50 ppm) | insecticidal efficacy (corrected mortality rate) against western flower thrips ([3]; 500 ppm)

COCSC1=C(C(=O)Nc2ccc(F)cc2)C(=O)N(C(=O)OC)N(c2ccc(C#N)nc2)C1 [5-18]
A (the mortality rate is 100%): insecticidal efficacy (corrected mortality rate) against diamondback moth ([1]; 50 ppm) | insecticidal efficacy (corrected mortality rate) against diamondback moth ([1]; 500 ppm) | insecticidal efficacy (corrected mortality rate) against small brown planthopper ([2]; 50 ppm) | insecticidal efficacy (corrected mortality rate) against small brown planthopper ([2]; 500 ppm) | insecticidal efficacy (corrected mortality rate) against western flower thrips ([3]; 50 ppm) | insecticidal efficacy (corrected mortality rate) against western flower thrips ([3]; 500 ppm)
